# Some of the results follow.
# Protein sequences, listed by entry. Tags and fused reporters are not part of them. Lines headed by an entry give the natural chain unless they say otherwise; changes in a name come on top.
# UniProt Q12824, whole entry, looked up: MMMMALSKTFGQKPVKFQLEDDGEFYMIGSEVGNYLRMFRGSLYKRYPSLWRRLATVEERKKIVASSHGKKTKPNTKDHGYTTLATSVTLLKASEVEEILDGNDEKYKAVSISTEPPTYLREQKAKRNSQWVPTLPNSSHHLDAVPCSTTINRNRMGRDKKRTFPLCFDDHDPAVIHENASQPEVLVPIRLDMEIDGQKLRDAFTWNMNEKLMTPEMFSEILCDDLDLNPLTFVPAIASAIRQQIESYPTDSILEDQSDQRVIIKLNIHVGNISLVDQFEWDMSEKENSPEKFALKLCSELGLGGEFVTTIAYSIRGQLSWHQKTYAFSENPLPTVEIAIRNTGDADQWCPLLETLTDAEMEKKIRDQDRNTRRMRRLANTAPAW
# UniProt O60749: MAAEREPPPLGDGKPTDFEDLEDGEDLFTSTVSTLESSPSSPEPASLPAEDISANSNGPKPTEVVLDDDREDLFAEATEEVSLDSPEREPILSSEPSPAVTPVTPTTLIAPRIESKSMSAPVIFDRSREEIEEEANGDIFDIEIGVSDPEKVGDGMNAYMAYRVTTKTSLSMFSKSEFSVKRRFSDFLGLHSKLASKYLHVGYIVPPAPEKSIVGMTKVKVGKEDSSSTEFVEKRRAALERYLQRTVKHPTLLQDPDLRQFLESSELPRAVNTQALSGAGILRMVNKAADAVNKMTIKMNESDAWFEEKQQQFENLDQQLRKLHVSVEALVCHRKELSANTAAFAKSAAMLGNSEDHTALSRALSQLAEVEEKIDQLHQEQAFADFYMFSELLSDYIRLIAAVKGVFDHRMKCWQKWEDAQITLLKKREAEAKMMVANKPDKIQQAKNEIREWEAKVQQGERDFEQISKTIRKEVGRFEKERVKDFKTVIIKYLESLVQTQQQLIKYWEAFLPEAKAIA
# UniProt Q0VAQ4: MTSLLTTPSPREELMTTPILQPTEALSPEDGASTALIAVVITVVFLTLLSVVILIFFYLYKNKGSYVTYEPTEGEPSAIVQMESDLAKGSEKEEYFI
# UniProt Q53HV7: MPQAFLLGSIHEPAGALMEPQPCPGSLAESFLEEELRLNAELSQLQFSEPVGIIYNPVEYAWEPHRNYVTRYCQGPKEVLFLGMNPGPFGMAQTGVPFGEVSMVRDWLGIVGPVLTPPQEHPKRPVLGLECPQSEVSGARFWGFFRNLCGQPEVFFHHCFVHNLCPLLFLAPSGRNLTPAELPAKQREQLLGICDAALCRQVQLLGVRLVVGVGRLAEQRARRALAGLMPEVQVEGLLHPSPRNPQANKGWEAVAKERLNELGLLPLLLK
# UniProt O60271: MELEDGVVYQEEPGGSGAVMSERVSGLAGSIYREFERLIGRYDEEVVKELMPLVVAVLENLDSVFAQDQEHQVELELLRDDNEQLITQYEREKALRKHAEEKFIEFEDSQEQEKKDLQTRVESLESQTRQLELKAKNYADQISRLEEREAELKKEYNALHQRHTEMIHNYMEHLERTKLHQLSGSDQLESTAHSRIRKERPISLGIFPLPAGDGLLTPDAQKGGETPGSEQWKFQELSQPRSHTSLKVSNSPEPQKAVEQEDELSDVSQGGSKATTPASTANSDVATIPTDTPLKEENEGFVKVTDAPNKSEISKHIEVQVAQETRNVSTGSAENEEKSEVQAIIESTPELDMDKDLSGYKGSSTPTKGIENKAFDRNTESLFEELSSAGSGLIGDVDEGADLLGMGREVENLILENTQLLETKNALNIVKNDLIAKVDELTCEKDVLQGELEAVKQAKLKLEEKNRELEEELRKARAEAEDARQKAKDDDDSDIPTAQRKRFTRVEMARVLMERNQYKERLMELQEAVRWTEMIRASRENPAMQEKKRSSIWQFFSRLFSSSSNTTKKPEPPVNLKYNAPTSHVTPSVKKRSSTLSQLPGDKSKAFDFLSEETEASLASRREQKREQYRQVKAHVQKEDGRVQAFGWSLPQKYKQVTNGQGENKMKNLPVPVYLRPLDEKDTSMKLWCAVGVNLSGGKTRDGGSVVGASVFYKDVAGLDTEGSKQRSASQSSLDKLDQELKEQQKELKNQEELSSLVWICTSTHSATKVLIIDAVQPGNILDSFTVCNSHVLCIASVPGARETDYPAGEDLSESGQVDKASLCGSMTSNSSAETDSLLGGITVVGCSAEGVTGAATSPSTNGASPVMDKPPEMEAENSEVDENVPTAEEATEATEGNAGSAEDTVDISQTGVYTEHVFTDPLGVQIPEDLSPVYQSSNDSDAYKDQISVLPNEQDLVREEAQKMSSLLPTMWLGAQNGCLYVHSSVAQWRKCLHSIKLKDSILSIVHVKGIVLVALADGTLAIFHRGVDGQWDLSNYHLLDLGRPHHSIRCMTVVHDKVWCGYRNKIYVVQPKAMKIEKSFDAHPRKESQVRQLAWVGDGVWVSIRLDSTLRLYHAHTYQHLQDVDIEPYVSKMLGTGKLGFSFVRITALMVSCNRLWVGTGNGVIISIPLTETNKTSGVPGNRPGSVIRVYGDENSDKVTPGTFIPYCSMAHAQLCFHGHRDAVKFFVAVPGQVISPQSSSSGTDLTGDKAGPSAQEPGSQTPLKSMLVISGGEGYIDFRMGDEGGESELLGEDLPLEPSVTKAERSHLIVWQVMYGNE
# UniProt B2RUZ4: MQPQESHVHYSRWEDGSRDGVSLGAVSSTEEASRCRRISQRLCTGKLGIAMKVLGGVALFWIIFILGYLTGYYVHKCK
# UniProt Q96E16: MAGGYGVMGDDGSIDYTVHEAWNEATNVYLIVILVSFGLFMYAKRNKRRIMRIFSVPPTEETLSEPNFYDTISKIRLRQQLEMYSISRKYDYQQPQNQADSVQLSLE
# UniProt Q02086: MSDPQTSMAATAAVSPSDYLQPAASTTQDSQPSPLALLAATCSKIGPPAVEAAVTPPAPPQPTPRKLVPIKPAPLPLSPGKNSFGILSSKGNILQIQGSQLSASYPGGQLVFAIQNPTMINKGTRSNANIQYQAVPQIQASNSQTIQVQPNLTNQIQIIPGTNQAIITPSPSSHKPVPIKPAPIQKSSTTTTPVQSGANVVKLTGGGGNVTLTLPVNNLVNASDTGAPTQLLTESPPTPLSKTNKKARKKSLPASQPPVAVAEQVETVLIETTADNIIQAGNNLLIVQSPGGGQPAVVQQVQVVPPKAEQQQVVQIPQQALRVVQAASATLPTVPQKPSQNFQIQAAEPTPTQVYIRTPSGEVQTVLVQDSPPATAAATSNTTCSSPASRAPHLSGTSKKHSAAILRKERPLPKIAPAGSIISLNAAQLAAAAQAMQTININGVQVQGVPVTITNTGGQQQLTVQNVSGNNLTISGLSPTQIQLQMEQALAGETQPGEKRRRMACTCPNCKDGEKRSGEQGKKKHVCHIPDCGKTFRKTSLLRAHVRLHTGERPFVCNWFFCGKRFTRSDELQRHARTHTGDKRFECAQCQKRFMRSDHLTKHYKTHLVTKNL
# UniProt Q92543: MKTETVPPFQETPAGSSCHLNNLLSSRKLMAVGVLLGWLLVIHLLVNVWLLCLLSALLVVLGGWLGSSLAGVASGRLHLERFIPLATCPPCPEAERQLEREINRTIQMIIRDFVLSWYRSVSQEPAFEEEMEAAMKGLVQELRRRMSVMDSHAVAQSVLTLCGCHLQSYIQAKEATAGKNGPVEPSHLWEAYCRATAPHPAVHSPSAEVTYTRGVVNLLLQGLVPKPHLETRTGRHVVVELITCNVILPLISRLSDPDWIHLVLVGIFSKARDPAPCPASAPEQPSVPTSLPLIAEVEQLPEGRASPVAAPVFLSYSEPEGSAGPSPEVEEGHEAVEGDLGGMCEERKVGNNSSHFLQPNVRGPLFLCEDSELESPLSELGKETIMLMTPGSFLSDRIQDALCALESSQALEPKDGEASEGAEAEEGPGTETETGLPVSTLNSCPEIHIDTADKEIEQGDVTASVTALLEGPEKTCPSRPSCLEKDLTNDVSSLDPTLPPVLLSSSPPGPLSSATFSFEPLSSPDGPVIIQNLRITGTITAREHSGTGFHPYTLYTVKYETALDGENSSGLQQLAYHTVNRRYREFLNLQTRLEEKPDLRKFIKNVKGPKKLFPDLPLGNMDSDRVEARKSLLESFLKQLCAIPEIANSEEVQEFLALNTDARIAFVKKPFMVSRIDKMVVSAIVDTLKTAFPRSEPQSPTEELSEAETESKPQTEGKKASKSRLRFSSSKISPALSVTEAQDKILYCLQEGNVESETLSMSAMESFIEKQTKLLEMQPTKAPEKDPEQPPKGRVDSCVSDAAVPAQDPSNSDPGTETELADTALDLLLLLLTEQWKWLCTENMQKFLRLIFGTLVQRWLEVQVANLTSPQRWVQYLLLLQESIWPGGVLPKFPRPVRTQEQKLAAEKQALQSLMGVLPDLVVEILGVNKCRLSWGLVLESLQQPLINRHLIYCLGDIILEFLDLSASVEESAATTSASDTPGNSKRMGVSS
# UniProt Q9UNH7: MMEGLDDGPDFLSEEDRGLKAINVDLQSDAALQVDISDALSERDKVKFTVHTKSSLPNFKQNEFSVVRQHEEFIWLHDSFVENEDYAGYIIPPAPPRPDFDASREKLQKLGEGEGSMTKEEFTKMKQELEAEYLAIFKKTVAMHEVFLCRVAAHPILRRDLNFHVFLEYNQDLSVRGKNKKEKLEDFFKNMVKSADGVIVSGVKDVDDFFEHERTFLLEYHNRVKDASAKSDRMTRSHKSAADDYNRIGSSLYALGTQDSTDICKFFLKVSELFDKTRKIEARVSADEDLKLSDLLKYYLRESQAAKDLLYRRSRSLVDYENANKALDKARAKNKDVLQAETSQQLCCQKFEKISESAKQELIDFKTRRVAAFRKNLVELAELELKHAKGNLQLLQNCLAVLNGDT
# UniProt Q9NRH2: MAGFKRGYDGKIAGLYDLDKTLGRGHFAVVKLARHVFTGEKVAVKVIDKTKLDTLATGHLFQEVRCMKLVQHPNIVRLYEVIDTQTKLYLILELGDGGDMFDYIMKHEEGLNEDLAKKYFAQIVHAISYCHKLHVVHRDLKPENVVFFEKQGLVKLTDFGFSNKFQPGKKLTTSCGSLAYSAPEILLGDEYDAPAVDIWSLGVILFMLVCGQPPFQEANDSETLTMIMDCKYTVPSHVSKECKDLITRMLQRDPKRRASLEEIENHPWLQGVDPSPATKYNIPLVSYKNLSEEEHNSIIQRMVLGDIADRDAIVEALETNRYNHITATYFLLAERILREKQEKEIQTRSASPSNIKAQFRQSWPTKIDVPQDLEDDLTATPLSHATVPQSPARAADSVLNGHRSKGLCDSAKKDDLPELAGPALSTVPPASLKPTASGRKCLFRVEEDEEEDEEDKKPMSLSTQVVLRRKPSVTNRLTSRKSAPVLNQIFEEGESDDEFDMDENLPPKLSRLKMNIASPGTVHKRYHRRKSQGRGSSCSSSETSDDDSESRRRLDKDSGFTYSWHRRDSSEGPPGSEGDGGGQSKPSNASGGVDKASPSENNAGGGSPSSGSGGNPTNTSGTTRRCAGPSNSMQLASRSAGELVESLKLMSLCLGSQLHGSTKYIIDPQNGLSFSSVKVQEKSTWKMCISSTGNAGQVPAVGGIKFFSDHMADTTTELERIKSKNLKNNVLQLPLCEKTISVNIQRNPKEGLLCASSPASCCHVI
# UniProt Q02447: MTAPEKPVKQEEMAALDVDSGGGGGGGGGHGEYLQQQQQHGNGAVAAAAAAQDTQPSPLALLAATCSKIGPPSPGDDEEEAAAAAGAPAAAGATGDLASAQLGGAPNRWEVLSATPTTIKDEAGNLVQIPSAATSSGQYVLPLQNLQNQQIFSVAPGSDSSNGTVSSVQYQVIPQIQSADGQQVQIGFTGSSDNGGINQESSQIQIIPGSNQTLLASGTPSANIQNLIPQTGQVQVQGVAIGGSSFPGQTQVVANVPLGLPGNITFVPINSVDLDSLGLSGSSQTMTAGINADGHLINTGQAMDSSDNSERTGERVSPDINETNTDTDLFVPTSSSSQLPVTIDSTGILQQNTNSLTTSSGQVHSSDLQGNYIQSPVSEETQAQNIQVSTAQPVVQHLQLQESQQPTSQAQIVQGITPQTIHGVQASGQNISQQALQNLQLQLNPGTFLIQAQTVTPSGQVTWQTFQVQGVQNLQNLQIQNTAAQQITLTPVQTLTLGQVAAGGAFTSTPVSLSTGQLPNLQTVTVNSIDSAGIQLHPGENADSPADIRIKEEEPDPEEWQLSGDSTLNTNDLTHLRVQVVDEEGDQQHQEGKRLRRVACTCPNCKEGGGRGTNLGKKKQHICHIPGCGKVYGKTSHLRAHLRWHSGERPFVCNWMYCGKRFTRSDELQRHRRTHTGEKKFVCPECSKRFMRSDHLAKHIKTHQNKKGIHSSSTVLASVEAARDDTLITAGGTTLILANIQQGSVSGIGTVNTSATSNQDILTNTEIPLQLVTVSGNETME
# UniProt O00161: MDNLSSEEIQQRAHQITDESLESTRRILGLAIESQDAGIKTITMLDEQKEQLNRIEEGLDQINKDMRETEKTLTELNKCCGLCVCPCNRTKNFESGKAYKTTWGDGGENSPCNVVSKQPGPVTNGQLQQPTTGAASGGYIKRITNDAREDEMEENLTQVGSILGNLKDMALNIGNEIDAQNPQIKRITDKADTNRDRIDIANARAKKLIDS
# What was measured:
# Experiment in all cases: log2 fold change, soluble protein after heating vs DMSO (PISA); higher = thermal stabilisation; K562 cells, 10 uM, 30 min; active = over 0.2 and 3.5 SD of the protein, either way, in both replicates (recomputed)
# [1] = compound: CC[C@@H]1C(=O)N(C)c2cnc(Nc3ccc(C(=O)NC4CCN(C)CC4)cc3OC)nc2N1C1CCCC1
# How it was run: (§1)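 K562 cells at 2×10^6 cells/mL were exposed to 10 μM compound for 30 min, then aliquots were heated for 3 min across 48°C-58°C, pooled, and extracted in PBS containing 0.5% NP-40 at 4°C. The supernatant after 21,000xg for 90 min was taken as soluble protein and measured by TMTpro 16plex LC-MS/MS with channel sums equalised. Thermal stability is reported relative to control samples, with values from duplicates. Fold changes are given on a log2 scale.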
# volasertib = compound: CC[C@@H]1C(=O)N(C)c2cnc(Nc3ccc(C(=O)N[C@H]4CC[C@H](N5CCN(CC6CC6)CC5)CC4)cc3OC)nc2N1C(C)C [volasertib]
# How it was run: as §1
# [2] = compound: CN1C2=C(C3=C1C(=O)N(N=C3)CC4=CC(=CC=C4)N)SC(=C2)S(=O)C
# How it was run: as §1
# [3] = compound: CC[C@H](C)N1C=C(C2=C(C=C(C=C21)C3=CN=C(C=C3)N4CCNCC4)C(=O)NCC5=C(C=C(NC5=O)C)C)C
# How it was run: as §1
# [4] = compound: CCn1cc(-c2ccnc3[nH]c(-c4cccc(CN(C)C)c4)cc23)c(-c2ccc(NC(=O)N(C)C)cc2)n1
# How it was run: as §1
# [5] = compound: CN(C)CC(=O)Nc1ccc2[nH]c(=O)c3ccccc3c2c1
# How it was run: as §1
# rosiglitazone = compound: CN(CCOC1=CC=C(C=C1)C[C@H]2C(=O)NC(=O)S2)C3=CC=CC=N3 (racemic) [rosiglitazone]
# How it was run: as §1
# [6] = compound: CN1CCC(CNc2ccc3ncc(-c4cccc(OC(F)(F)F)c4)n3n2)CC1
# How it was run: as §1
# epoxomicin = compound: CC[C@H](C)[C@@H](C(=O)N[C@@H]([C@@H](C)O)C(=O)N[C@@H](CC(C)C)C(=O)[C@]1(CO1)C)NC(=O)[C@H]([C@@H](C)CC)N(C)C(=O)C [epoxomicin]
# How it was run: as §1
# [7] = compound: CCn1c(C(=O)N(C2CC2)C2CC2)cc2c3c(ncn3C)c(Nc3cc(C)n(C)n3)nc21
# How it was run: as §1
Target,log2 fold change [1],log2 fold change (volasertib),log2 fold change [2],log2 fold change [3],log2 fold change [4],log2 fold change [5],log2 fold change (rosiglitazone),log2 fold change [6],log2 fold change (epoxomicin),log2 fold change [7]
SLC9A6 isoform 3 (UniProt Q92581),inactive: -0.041,inactive: -0.045,inactive: 0.008,–,–,–,–,–,–,–
SNRPD2 (UniProt K7EJB5),inactive: 0.162,inactive: 0.072,inactive: 0.041,inactive: -0.136,inactive: 0.117,inactive: -0.105,inactive: 0.123,inactive: 0.054,–,–
SMARCB1 (UniProt Q12824),inactive: -0.058,–,inactive: 0.127,–,inactive: 0.053,inactive: -0.116,–,inactive: -0.222,–,–
SORT1 (UniProt Q99523),active: -0.984,active: -1.34,inactive: -0.028,inactive: -0.013,inactive: 0.007,inactive: 0.003,–,active: -0.582,inactive: 0.032,–
SNRPN isoform 2 (UniProt P63162),inactive: 0.042,inactive: -0.566,–,–,inactive: 0.369,–,–,inactive: 0.233,–,–
SMIM15 (UniProt Q7Z3B0),inactive: -0.11,–,inactive: -0.051,inactive: -0.006,inactive: -0.161,inactive: 0.05,inactive: -0.105,inactive: 0.227,inactive: -0.348,inactive: 0.044
SNX2 isoform 2 (UniProt O60749),inactive: -0.194,inactive: -0.06,inactive: 0.086,–,–,inactive: -0.161,–,–,inactive: 0.034,–
SMU1 isoform 2 (UniProt Q2TAY7),inactive: 0.14,–,–,–,–,–,inactive: 0.145,–,–,–
SMAGP (UniProt Q0VAQ4),inactive: 0.343,inactive: 0.165,inactive: 0.057,inactive: -0.045,–,–,inactive: 0.142,–,inactive: 0.206,–
SMUG1 (UniProt Q53HV7),inactive: -0.113,–,–,inactive: 0.147,–,–,–,–,–,–
SNX15 (UniProt Q9NRS6),inactive: 0.177,inactive: -0.223,inactive: 0.119,inactive: -0.023,inactive: -0.016,inactive: -0.045,–,inactive: 0.039,–,–
SPAG9 (UniProt O60271),inactive: -0.039,inactive: -0.168,inactive: -0.009,inactive: 0.046,inactive: 0.02,inactive: 0.02,–,inactive: -0.203,inactive: 0.028,–
SMIM1 (UniProt B2RUZ4),inactive: 0.013,inactive: 0.297,inactive: 0.039,inactive: 0.006,inactive: -0.035,–,inactive: 0.077,inactive: 0.3,–,inactive: 0.134
SNAP91 (UniProt O60641),inactive: 0.029,–,inactive: -0.089,inactive: 0.028,inactive: -0.065,inactive: 0.055,inactive: -0.085,inactive: 0.119,inactive: 0.078,inactive: 0.016
SOS1 (UniProt Q07889),inactive: 0.064,–,–,inactive: 0.172,–,–,inactive: 0.225,–,inactive: -0.015,inactive: -0.032
SMDT1 (UniProt Q9H4I9),inactive: 0.08,–,inactive: 0.028,–,inactive: -0.044,inactive: 0.108,–,inactive: 0.01,inactive: -0.064,–

Target,log2 fold change [1],log2 fold change (volasertib),log2 fold change [2],log2 fold change [3],log2 fold change [4],log2 fold change [5],log2 fold change (rosiglitazone),log2 fold change [6],log2 fold change (epoxomicin),log2 fold change [7]
SMIM19 (UniProt Q96E16),inactive: -0.097,inactive: -0.016,inactive: -0.345,–,–,inactive: -0.182,–,–,–,–
SP2 (UniProt Q02086),inactive: -0.289,–,inactive: 0.372,–,–,–,–,–,–,–
SLX4IP (UniProt Q5VYV7),–,inactive: -0.238,–,–,–,–,–,–,–,–
SP4 (UniProt Q02446),inactive: 0.111,–,–,inactive: -0.005,inactive: 0.162,–,–,inactive: 0.121,–,–
SNX19 (UniProt Q92543),inactive: -0.089,inactive: -0.276,–,–,–,–,–,–,inactive: -0.082,inactive: -0.175
SMARCD2 (UniProt Q92925),inactive: -0.314,inactive: -0.252,–,–,inactive: -0.046,–,–,inactive: -0.117,–,inactive: 0.034
SNX27 (UniProt Q96L92),inactive: 0.067,–,inactive: 0.226,–,inactive: 0.107,inactive: -0.035,–,inactive: -0.2,inactive: -0.066,inactive: -0.113
SMYD3 (UniProt Q9H7B4),–,inactive: -0.382,inactive: 0.07,inactive: 0.156,inactive: 0.025,inactive: -0.085,inactive: 0.015,inactive: 0.055,inactive: 0.155,inactive: 0.053
SMARCA1 (UniProt P28370),inactive: -0.1,inactive: -0.457,inactive: 0.024,–,inactive: -0.054,inactive: -0.043,inactive: 0,inactive: 0.031,inactive: 0.023,inactive: -0.008
SNX6 (UniProt Q9UNH7),inactive: -0.142,inactive: -0.047,inactive: 0.016,inactive: 0.117,inactive: -0.131,inactive: 0.005,–,active: -0.77,inactive: 0.015,–
SPAG9 isoform 4 (UniProt O60271),inactive: -0.192,–,–,inactive: 0.093,–,inactive: -0.093,–,–,–,–
SNRK (UniProt Q9NRH2),inactive: -0.157,inactive: -0.085,inactive: -0.011,–,–,–,–,–,–,–
SMARCA4 (UniProt P51532),inactive: 0.019,inactive: 0.121,inactive: 0.177,–,inactive: 0.119,inactive: -0.191,–,inactive: -0.046,inactive: 0,–
SP3 (UniProt Q02447),inactive: 0.03,inactive: 0.104,inactive: 0.058,inactive: -0.019,inactive: 0.068,inactive: -0.074,–,inactive: 0.028,inactive: -0.194,–
SMIM13 (UniProt P0DJ93),inactive: -0.049,inactive: -0.116,–,inactive: 0.002,–,–,inactive: -0.029,–,–,–
SNAP23 isoform 2 (UniProt O00161),inactive: 0.161,inactive: 0.054,inactive: -0.097,–,–,inactive: 0.09,–,–,inactive: 0.056,inactive: 0.077

# A portion taken from the entries so far:
Target,log2 fold change [1],log2 fold change (volasertib),log2 fold change [2],log2 fold change [3],log2 fold change [4],log2 fold change [5],log2 fold change (rosiglitazone),log2 fold change [6],log2 fold change (epoxomicin),log2 fold change [7]
SP2 (UniProt Q02086),inactive: -0.289,–,inactive: 0.372,–,–,–,–,–,–,–
SLX4IP (UniProt Q5VYV7),–,inactive: -0.238,–,–,–,–,–,–,–,–

# Source: the supplement of paper PMC10849652
